Changes are numbered by the printed parent chain. Results are given in words; binding and its absence hold for the method and conditions named. Binding seen in cells or lysates may run through a third protein. Some results given as binding are weak or reduced against the parent protein; the word gives no strength. For part of these data: Sequences can lack the tags named with a protein.
Tests used:
[1] = molecular target: T1, chaperonin-containing TCP1 subunit 3 (CCT3) (human (endogenous in 97 L and LM3)) (UniProt P49368); experiment: co-IP; endogenous proteins in 97 L and LM3 lysates (0.5% NP40, 4 °C), anti-CCT3 or anti-ACTN4 antibody or isotype IgG overnight, protein A/G agarose, Western blot
T1 sequence: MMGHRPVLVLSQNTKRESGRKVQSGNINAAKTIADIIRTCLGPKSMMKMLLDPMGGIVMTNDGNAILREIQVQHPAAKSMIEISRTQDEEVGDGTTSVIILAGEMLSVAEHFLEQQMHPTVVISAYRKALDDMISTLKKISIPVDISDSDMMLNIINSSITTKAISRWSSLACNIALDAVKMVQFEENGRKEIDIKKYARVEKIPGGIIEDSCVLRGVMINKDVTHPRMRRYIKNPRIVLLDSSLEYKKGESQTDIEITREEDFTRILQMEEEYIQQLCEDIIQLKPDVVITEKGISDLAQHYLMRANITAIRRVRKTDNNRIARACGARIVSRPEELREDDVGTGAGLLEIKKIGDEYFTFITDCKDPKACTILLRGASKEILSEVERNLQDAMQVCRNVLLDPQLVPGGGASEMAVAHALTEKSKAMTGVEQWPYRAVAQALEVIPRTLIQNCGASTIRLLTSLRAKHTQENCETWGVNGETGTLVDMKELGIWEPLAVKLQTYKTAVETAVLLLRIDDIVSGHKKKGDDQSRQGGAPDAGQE

The chains behind the UniProt entries cited, without tags or fusion partners.
UniProt O43707: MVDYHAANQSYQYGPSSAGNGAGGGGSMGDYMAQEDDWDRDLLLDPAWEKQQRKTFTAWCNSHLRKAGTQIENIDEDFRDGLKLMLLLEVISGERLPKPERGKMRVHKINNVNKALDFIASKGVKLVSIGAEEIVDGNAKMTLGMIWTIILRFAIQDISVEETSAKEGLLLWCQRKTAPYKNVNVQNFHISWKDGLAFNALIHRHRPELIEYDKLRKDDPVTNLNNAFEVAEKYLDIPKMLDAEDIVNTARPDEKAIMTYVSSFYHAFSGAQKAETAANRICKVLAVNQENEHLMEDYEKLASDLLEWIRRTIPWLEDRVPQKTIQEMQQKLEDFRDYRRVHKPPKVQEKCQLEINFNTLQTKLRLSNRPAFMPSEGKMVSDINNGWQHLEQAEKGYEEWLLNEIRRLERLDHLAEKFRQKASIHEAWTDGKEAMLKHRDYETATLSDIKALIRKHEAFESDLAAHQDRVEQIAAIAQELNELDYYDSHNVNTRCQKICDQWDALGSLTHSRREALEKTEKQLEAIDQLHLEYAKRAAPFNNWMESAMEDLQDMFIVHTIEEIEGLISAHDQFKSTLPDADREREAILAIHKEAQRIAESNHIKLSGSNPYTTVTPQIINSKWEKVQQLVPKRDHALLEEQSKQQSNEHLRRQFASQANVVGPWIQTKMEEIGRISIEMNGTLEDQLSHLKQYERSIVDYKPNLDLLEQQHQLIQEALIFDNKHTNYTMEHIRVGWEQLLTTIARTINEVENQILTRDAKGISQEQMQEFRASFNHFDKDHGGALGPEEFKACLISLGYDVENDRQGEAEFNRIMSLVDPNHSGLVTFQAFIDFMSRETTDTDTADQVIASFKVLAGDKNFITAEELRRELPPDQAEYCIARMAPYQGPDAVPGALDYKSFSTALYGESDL

Flag-CCT3 = molecular target: T2, Flag-CCT3 (UniProt P49368); experiment: co-IP; exogenous, tagged proteins co-expressed in 293T cells, lysis in 0.5% NP40, anti-Flag or anti-Myc antibody, protein A/G agarose, Western blot
T2 sequence: T1 sequence

[2] = molecular target: T3, K21R mutant CCT3 (CCT3^K21R) (UniProt P49368); experiment: as above
T3 sequence: T1 sequence with K21R

binding [1]	binding (Flag-CCT3)	binding [2]	Substance
binds			ACTN4 (from UniProt O43707 1-911)
	binds	binds	Myc-ACTN4 (from UniProt O43707 1-911)
